These results are taken from publication PMC7352952 (International Journal of Molecular Sciences, 2020).

The series is described as follows: general procedure: Fmoc solid-phase peptide synthesis; Rink amide resin (0.46 meq/g); DCC and 6-Cl-HOBt. Conditions: whole synthesis, 210 nm, scale of the general procedure 200 mg resin.
(RRWQWRLKKLG)2-K-Ahx: the “final HPLC purity” value was found to be 92%. Take (RRWQWRAKKLG)2-K-Ahx: the “final HPLC purity” value is on record as 95%. As to (RRWQWRMKKLG)2-K-Ahx, the “final HPLC purity” value was 94%. Turning to (RRWQWRFKKLG)2-K-Ahx, the “final HPLC purity” value came to 91%. With (RRWQWRDKKLG)2-K-Ahx, the “final HPLC purity” value is recorded as 97%. Regarding (RRWQWRKKKLG)2-K-Ahx, the “final HPLC purity” value is on record as 95%.
